Results published in article PMC10253099.
Results are given in words; binding and its absence hold for the method and conditions named. In cells and extracts the contact can be indirect. Binding can be weak; no strength is given. Tags and fused reporters may be left off the sequences shown. Blank lines part the entries; values can stand above or below the binder they belong to.

Columns and labels:
[1] = biological target: OZ1-cYFP (Arabidopsis thaliana); experiment: split reporter; BiFC: nYFP (pSPYNE173) and cYFP (pSPYCE(M)) fusions co-transformed into Arabidopsis Col-0 mesophyll protoplasts, 16-20 h at 22 °C, confocal microscopy
[2] = biological target: OZ1-NLuc (Arabidopsis thaliana); experiment: split reporter; firefly luciferase complementation imaging (LCI): NLuc and CLuc fusions co-expressed in tobacco leaves by Agrobacterium infiltration with P19, 60 h, 1 mM D-luciferin

binding [1]: binds
B1: ATPC1-nYFP (ATPC1 fused to the N-terminal fragment of YFP) (protein, UniProt Q01908 51-373)
chain: ASLRELRDRIDSVKNTQKITEAMKLVAAAKVRRAQEAVVNGRPFSETLVEVLYNINEQLQTDDVDVPLTKVRPVKKVALVVVTGDRGLCGGFNNFIIKKAEARIKELKGLGLEYTVISVGKKGNSYFLRRPYIPVDKYLEAGTLPTAKEAQAVADDVFSLFISEEVDKVELLYTKFVSLVKSEPVIHTLLPLSPKGEICDINGTCVDAAEDEFFRLTTKEGKLTVERETFRTPTADFSPILQFEQDPVQILDALLPLYLNSQILRALQESLASELAARMSAMSSASDNASDLKKSLSMVYNRKRQAKITGEILEIVAGANAQV

binding [2]: binds
B2: ATPC1-CLuc (ATPC1, C-terminal luciferase fragment fusion) (protein, UniProt Q01908 51-373)
chain: B1 chain
